The test system of this assay is BDF1 mice, colon carcinoma 38 sc, T/C %. Kind of assay: NCI In Vivo Anticancer Drug Screen. Data for tumor model Colon Carcinoma 38 (subcutaneous) in B6D2F1 (BDF1) mice. How it is done: The antitumor activity of compounds was measured in mice bearing transplantable tumors. Survival or tumor size were measured and the results are expressed as the measurement made in the treated group (T) divided by the measurement made in the vehicle treated control group (C). The tumor model used in this assay is Colon Carcinoma 38 (subcutaneous) in B6D2F1 (BDF1) mice

Molecules are shown by their SMILES. The list does not hold the whole screen: its compounds were picked by chemical class. Other doses and runs of a compound may be missing. T/C: endpoint of the treated group in % of that of the vehicle group. Schedule codes are those of the source, taken here to give the interval after Q, in days (D) or hours (H), and the number of doses after X. Some T/C values are marked as having no survivor count here; that says nothing about deaths at the dose. For survival time, this PubChem deposit counts one and a half times the control or more as active, and values a quarter to a half above the control carry no call in these data; other NCI protocols may use other cut-offs.

For `CC1=C[C@H]2O[C@@H]3[C@H](OC(=O)CCl)[C@@H](O)[C@](C)(C2(CO)CC1)[C@@]31CO1` (stereo not given in full), the T/C by setting is: (T/C endpoint: median tumor weight (est.), dose: 12.0 mg/kg/injection, schedule: Q07DX003 (ip), vehicle: saline with Tween-80, evaluated on day 20, higher T/C = larger tumour) 54 % of control [survivor count not shown]; (T/C endpoint: median tumor weight (est.), dose: 24.0 mg/kg/injection, schedule: Q07DX003 (ip), vehicle: saline with Tween-80, evaluated on day 20, higher T/C = larger tumour) 55 % of control [survivor count not shown].
In the case of `CC1=C[C@H]2O[C@@H]3C[C@H]4OC(=O)/C=C\C=C\C5OC(C/C(C)=C\C(=O)OCC2(CC1)[C@]4(C)[C@]31CO1)OC5C` (stereo not given in full), the T/C is, setting by setting: (T/C endpoint: median tumor weight (est.), dose: 1.56 mg/kg/injection, schedule: Q07DX002 (ip), vehicle: saline + Tween-80 + alcohol, evaluated on day 20, higher T/C = larger tumour) 81 % of control [survivor count not shown]; (T/C endpoint: median tumor weight (est.), dose: 3.12 mg/kg/injection, schedule: Q07DX002 (ip), vehicle: saline + Tween-80 + alcohol, evaluated on day 20, higher T/C = larger tumour) 121 % of control [survivor count not shown]; (T/C endpoint: median tumor weight (est.), dose: 6.25 mg/kg/injection, schedule: Q07DX002 (ip), vehicle: saline + Tween-80 + alcohol, evaluated on day 20, higher T/C = larger tumour) 109 % of control [survivor count not shown]; (T/C endpoint: median tumor weight (est.), dose: 12.5 mg/kg/injection, schedule: Q07DX002 (ip), vehicle: saline + Tween-80 + alcohol, evaluated on day 20, higher T/C = larger tumour) 68 % of control [survivor count not shown]; (T/C endpoint: median tumor weight (est.), dose: 25.0 mg/kg/injection, schedule: Q07DX002 (ip), vehicle: saline + Tween-80 + alcohol, evaluated on day 20, higher T/C = larger tumour) 71 % of control [survivor count not shown]; (T/C endpoint: median tumor weight (est.), dose: 50.0 mg/kg/injection, schedule: Q07DX002 (ip), vehicle: saline + Tween-80 + alcohol, evaluated on day 20, higher T/C = larger tumour) 66 % of control [survivor count not shown].
Consider `CC(=O)OC[C@]12CC(=O)C(C)=C[C@H]1O[C@@H]1C(=O)[C@@H](OC(C)=O)[C@@]2(C)[C@@]12CO2`, for which the T/C was 116 % of control [survivor count not shown] (T/C endpoint: median tumor weight (est.), dose: 0.5 mg/kg/injection, schedule: Q07DX002 (ip), vehicle: water, evaluated on day 20, higher T/C = larger tumour); 90 % of control [survivor count not shown] (T/C endpoint: median tumor weight (est.), dose: 1.0 mg/kg/injection, schedule: Q07DX002 (ip), vehicle: water, evaluated on day 20, higher T/C = larger tumour); 73 % of control [survivor count not shown] (T/C endpoint: median tumor weight (est.), dose: 2.0 mg/kg/injection, schedule: Q07DX002 (ip), vehicle: water, evaluated on day 20, higher T/C = larger tumour); 92 % of control [survivor count not shown] (T/C endpoint: median tumor weight (est.), dose: 4.0 mg/kg/injection, schedule: Q07DX002 (ip), vehicle: water, evaluated on day 20, higher T/C = larger tumour).
Turning to `C[C@@H]1CCOC(=O)/C=C/C=C\C(=O)O[C@@H]2C[C@H]3O[C@@H]4[C@@H]5OC5(C)CCC4(COC(=O)[C@H]1O)[C@]2(C)[C@@]31CO1` (stereo not given in full), the T/C reads like this: (T/C endpoint: median tumor weight (est.), dose: 0.5 mg/kg/injection, schedule: Q07DX003 (ip), vehicle: saline + alcohol, evaluated on day 20, higher T/C = larger tumour) 121 % of control [survivor count not shown]; (T/C endpoint: median tumor weight (est.), dose: 1.0 mg/kg/injection, schedule: Q07DX003 (ip), vehicle: saline + alcohol, evaluated on day 20, higher T/C = larger tumour) 97 % of control [survivor count not shown]; (T/C endpoint: median tumor weight (est.), dose: 2.0 mg/kg/injection, schedule: Q07DX003 (ip), vehicle: saline + alcohol, evaluated on day 20, higher T/C = larger tumour) 87 % of control [survivor count not shown]; (T/C endpoint: median tumor weight (est.), dose: 4.0 mg/kg/injection, schedule: Q07DX003 (ip), vehicle: saline + alcohol, evaluated on day 20, higher T/C = larger tumour) 135 % of control [survivor count not shown]; (T/C endpoint: median tumor weight (est.), dose: 8.0 mg/kg/injection, schedule: Q07DX003 (ip), vehicle: saline + alcohol, evaluated on day 20, higher T/C = larger tumour) 145 % of control [survivor count not shown].
As to `CC1=C[C@H]2O[C@@H]3[C@H](OC(=O)CCl)[C@@H](O)[C@](C)(C2(COC(=O)CCl)CC1)[C@@]31CO1` (stereo not given in full), the T/C runs as follows: (T/C endpoint: median tumor weight (est.), dose: 2.0 mg/kg/injection, schedule: Q07DX003 (ip), vehicle: saline with Tween-80, evaluated on day 20, higher T/C = larger tumour) 133 % of control [survivor count not shown]; (T/C endpoint: median tumor weight (est.), dose: 4.0 mg/kg/injection, schedule: Q07DX003 (ip), vehicle: saline with Tween-80, evaluated on day 20, higher T/C = larger tumour) 94 % of control [survivor count not shown].
For `CC1=C[C@H]2O[C@@H]3[C@H](O)[C@@H](O)[C@](C)(C2(COC(=O)CCl)CC1)[C@@]31CO1` (stereo not given in full), the T/C runs as follows: (T/C endpoint: median tumor weight (est.), dose: 1.5 mg/kg/injection, schedule: Q07DX003 (ip), vehicle: saline with Tween-80, evaluated on day 20, higher T/C = larger tumour) 140 % of control [survivor count not shown]; (T/C endpoint: median tumor weight (est.), dose: 3.0 mg/kg/injection, schedule: Q07DX003 (ip), vehicle: saline with Tween-80, evaluated on day 20, higher T/C = larger tumour) 120 % of control [survivor count not shown].
For `CC1=CC2OC3CC4OC(=O)/C=C/C=C/C(C(C)O)OCC(O)C(C)CC(=O)OCC2(CC1O)C4(C)C31CO1` (stereo not given), the T/C by setting is: (T/C endpoint: median survival time, dose: 1.0 mg/kg/injection, schedule: Q07DX003 (sc), vehicle: other, higher T/C = longer survival) 98 % of control [survivor count not shown]; (T/C endpoint: median survival time, dose: 2.0 mg/kg/injection, schedule: Q07DX003 (sc), vehicle: other, higher T/C = longer survival) 109 % of control [survivor count not shown]; (T/C endpoint: median tumor weight (est.), dose: 0.08 mg/kg/injection, schedule: Q07DX003 (ip), vehicle: Klucel (hydroxypropylcellulose) (HPC), evaluated on day 20, higher T/C = larger tumour) 79 % of control [survivor count not shown]; (T/C endpoint: median tumor weight (est.), dose: 0.15 mg/kg/injection, schedule: Q07DX003 (ip), vehicle: Klucel (hydroxypropylcellulose) (HPC), evaluated on day 20, higher T/C = larger tumour) 84 % of control [survivor count not shown]; (T/C endpoint: median tumor weight (est.), dose: 0.31 mg/kg/injection, schedule: Q07DX003 (ip), vehicle: Klucel (hydroxypropylcellulose) (HPC), evaluated on day 20, higher T/C = larger tumour) 113 % of control [survivor count not shown]; (T/C endpoint: median tumor weight (est.), dose: 0.62 mg/kg/injection, schedule: Q07DX003 (ip), vehicle: Klucel (hydroxypropylcellulose) (HPC), evaluated on day 20, higher T/C = larger tumour) 101 % of control [survivor count not shown].
Turning to `CC1=C[C@H]2O[C@@H]3[C@H](O)[C@@H](OC(=O)CCl)[C@](C)([C@@]2(CO)CC1)[C@]31CO1`, the T/C is, setting by setting: (T/C endpoint: median tumor weight (est.), dose: 5.0 mg/kg/injection, schedule: Q07DX003 (ip), vehicle: saline with Tween-80, evaluated on day 20, higher T/C = larger tumour) 171 % of control [survivor count not shown]; (T/C endpoint: median tumor weight (est.), dose: 10.0 mg/kg/injection, schedule: Q07DX003 (ip), vehicle: saline with Tween-80, evaluated on day 20, higher T/C = larger tumour) 75 % of control [survivor count not shown]; (T/C endpoint: median tumor weight (est.), dose: 20.0 mg/kg/injection, schedule: Q07DX003 (ip), vehicle: saline with Tween-80, evaluated on day 20, higher T/C = larger tumour) 54 % of control [survivor count not shown].
`CC1=CC2OC3CC4OC(=O)/C=C/C=C/C(C(C)O)OCC/C(C)=C/C(=O)OCC2(CC1)C4(C)C31CO1` (stereo not given): the T/C was 141 % of control [survivor count not shown] (T/C endpoint: median tumor weight (est.), dose: 1.56 mg/kg/injection, schedule: Q07DX002 (ip), vehicle: suspension in saline, evaluated on day 20, higher T/C = larger tumour); 110 % of control [survivor count not shown] (T/C endpoint: median tumor weight (est.), dose: 3.12 mg/kg/injection, schedule: Q07DX002 (ip), vehicle: suspension in saline, evaluated on day 20, higher T/C = larger tumour); 138 % of control [survivor count not shown] (T/C endpoint: median tumor weight (est.), dose: 6.25 mg/kg/injection, schedule: Q07DX002 (ip), vehicle: suspension in saline, evaluated on day 20, higher T/C = larger tumour); 101 % of control [survivor count not shown] (T/C endpoint: median tumor weight (est.), dose: 12.5 mg/kg/injection, schedule: Q07DX002 (ip), vehicle: suspension in saline, evaluated on day 20, higher T/C = larger tumour); 102 % of control [survivor count not shown] (T/C endpoint: median tumor weight (est.), dose: 25.0 mg/kg/injection, schedule: Q07DX002 (ip), vehicle: suspension in saline, evaluated on day 20, higher T/C = larger tumour).

For the origin of these results see PubChem BioAssay AID212 (DTP/NCI, 2004).
